Holding throughout (experiment): affinity purification with mass spectrometry; Flag-HA-tagged bait stably expressed in MCF10A cells; lysis in 50 mM Tris-HCl pH 7.5, 150 mM NaCl, 0.5% Nonidet P40, 4 °C; tagged bait immunoprecipitated, LC-MS/MS, CompPASS scoring of high confidence interacting proteins
For experiment [1], the target named is FLAG-HA-tagged α-catenin (CTNNA1) bait (human) (UniProt P35221).
For experiment [2], the target named is vinculin (VCL) bait with C-terminal Flag-HA (human) (UniProt P18206).
The target of experiment [3] is T1, FLAG-HA-tagged NEK8 bait (human) (UniProt Q86SG6).
T1 sequence: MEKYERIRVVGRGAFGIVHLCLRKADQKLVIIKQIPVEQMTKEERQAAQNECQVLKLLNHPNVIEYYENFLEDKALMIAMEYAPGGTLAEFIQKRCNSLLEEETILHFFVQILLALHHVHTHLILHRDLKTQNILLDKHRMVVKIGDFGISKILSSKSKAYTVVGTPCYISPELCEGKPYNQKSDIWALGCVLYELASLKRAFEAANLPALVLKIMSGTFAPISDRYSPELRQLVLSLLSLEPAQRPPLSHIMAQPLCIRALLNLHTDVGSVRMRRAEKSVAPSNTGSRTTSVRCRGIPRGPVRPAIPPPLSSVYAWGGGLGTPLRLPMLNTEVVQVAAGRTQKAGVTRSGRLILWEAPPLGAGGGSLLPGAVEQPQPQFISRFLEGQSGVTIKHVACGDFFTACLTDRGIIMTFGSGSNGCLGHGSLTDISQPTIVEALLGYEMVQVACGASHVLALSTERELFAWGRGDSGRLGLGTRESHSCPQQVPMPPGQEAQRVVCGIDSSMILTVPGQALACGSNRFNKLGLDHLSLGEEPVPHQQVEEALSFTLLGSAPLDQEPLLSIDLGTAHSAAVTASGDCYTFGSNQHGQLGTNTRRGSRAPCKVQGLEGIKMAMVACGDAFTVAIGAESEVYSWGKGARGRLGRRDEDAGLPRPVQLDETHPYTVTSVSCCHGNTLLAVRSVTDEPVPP

Chains of the proteins cited; added tags and fusions are not shown. Lines headed by an entry give the natural chain unless they say otherwise; changes in a name come on top. Residues count along the entry.
UniProt P35221: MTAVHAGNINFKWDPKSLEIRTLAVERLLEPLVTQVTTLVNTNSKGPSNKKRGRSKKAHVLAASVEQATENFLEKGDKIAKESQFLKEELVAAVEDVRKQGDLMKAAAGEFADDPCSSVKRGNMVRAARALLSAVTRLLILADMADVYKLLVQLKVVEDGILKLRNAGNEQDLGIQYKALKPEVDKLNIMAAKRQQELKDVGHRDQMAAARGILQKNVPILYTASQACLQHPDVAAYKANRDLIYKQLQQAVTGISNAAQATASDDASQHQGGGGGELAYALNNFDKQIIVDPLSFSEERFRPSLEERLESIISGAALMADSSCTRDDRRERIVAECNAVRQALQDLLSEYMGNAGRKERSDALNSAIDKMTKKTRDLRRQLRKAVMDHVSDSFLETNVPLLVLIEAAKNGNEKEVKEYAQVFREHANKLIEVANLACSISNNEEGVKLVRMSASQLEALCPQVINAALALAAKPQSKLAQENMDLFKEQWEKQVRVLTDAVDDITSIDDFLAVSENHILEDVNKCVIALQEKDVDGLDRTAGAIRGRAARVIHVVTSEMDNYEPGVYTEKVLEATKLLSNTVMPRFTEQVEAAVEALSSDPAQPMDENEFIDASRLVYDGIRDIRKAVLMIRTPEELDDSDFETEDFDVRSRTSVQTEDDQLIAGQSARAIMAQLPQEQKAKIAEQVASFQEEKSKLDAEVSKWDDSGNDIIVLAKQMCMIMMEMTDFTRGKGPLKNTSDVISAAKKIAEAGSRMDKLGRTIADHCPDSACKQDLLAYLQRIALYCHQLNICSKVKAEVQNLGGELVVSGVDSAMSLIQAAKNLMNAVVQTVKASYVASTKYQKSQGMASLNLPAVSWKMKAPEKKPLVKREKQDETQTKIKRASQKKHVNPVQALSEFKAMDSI
UniProt P18206: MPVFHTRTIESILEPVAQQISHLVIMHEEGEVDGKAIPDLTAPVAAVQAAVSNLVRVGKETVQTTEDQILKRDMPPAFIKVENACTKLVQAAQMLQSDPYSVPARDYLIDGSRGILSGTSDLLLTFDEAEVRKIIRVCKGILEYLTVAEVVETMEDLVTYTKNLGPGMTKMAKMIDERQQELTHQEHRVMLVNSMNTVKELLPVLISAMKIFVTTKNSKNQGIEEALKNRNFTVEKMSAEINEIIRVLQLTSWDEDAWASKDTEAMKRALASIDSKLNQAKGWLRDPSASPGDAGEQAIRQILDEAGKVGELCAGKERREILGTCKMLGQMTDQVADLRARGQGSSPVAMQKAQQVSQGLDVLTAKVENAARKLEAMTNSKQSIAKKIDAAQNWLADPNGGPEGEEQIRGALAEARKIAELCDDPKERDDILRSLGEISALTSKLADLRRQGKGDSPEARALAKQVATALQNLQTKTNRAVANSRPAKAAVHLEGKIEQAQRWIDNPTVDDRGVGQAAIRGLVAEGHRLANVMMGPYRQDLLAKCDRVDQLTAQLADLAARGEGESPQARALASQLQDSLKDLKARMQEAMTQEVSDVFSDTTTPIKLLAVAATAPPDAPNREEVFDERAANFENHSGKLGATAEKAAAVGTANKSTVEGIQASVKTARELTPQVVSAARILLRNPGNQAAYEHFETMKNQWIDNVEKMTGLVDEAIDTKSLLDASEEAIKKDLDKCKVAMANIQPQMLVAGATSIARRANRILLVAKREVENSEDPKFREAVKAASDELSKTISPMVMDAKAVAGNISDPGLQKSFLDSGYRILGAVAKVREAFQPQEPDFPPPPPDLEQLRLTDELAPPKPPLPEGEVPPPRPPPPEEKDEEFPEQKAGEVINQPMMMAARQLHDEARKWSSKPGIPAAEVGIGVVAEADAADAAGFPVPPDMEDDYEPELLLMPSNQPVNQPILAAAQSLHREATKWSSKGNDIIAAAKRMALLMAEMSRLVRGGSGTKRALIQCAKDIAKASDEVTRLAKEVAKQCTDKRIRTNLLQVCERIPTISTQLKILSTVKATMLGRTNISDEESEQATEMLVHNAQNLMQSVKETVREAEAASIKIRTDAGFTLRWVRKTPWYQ
UniProt Q03135: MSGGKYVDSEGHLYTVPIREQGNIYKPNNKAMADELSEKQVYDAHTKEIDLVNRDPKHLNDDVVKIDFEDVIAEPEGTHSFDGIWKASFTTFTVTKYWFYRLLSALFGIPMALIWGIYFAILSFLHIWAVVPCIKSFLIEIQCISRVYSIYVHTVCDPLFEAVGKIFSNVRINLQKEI
UniProt Q9BR76: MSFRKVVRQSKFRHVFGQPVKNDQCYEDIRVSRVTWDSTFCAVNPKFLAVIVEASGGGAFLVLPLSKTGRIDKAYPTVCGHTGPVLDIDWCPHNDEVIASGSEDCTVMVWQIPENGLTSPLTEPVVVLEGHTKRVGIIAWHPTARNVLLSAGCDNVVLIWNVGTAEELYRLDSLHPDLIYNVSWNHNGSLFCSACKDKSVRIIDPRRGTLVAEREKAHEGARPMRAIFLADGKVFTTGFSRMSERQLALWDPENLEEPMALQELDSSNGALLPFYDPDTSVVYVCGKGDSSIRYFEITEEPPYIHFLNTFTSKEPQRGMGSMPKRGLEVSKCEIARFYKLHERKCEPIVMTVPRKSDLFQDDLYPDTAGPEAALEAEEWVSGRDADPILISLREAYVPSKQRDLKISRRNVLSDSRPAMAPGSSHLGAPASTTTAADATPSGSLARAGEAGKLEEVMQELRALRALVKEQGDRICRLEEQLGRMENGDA
UniProt P35222: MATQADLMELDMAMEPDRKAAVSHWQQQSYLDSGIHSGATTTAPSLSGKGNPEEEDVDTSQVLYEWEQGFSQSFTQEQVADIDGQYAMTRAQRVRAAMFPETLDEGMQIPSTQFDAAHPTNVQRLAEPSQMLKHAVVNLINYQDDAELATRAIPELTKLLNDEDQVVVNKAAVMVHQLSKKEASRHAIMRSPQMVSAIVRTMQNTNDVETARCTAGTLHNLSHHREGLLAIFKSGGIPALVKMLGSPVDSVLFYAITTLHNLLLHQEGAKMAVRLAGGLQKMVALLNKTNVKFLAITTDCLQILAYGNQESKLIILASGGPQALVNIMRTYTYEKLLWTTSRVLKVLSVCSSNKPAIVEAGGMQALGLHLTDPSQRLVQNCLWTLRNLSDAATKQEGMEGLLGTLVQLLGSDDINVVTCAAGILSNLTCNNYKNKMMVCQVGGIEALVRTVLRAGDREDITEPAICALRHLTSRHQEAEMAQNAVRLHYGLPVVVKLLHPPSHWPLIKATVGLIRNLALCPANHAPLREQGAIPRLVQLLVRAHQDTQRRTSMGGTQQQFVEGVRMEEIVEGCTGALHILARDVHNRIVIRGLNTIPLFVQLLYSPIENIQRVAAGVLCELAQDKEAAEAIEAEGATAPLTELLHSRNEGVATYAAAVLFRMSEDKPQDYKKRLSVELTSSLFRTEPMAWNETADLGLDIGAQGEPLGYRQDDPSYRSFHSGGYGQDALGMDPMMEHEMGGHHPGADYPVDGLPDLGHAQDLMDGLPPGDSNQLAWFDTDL
UniProt Q5T5U3: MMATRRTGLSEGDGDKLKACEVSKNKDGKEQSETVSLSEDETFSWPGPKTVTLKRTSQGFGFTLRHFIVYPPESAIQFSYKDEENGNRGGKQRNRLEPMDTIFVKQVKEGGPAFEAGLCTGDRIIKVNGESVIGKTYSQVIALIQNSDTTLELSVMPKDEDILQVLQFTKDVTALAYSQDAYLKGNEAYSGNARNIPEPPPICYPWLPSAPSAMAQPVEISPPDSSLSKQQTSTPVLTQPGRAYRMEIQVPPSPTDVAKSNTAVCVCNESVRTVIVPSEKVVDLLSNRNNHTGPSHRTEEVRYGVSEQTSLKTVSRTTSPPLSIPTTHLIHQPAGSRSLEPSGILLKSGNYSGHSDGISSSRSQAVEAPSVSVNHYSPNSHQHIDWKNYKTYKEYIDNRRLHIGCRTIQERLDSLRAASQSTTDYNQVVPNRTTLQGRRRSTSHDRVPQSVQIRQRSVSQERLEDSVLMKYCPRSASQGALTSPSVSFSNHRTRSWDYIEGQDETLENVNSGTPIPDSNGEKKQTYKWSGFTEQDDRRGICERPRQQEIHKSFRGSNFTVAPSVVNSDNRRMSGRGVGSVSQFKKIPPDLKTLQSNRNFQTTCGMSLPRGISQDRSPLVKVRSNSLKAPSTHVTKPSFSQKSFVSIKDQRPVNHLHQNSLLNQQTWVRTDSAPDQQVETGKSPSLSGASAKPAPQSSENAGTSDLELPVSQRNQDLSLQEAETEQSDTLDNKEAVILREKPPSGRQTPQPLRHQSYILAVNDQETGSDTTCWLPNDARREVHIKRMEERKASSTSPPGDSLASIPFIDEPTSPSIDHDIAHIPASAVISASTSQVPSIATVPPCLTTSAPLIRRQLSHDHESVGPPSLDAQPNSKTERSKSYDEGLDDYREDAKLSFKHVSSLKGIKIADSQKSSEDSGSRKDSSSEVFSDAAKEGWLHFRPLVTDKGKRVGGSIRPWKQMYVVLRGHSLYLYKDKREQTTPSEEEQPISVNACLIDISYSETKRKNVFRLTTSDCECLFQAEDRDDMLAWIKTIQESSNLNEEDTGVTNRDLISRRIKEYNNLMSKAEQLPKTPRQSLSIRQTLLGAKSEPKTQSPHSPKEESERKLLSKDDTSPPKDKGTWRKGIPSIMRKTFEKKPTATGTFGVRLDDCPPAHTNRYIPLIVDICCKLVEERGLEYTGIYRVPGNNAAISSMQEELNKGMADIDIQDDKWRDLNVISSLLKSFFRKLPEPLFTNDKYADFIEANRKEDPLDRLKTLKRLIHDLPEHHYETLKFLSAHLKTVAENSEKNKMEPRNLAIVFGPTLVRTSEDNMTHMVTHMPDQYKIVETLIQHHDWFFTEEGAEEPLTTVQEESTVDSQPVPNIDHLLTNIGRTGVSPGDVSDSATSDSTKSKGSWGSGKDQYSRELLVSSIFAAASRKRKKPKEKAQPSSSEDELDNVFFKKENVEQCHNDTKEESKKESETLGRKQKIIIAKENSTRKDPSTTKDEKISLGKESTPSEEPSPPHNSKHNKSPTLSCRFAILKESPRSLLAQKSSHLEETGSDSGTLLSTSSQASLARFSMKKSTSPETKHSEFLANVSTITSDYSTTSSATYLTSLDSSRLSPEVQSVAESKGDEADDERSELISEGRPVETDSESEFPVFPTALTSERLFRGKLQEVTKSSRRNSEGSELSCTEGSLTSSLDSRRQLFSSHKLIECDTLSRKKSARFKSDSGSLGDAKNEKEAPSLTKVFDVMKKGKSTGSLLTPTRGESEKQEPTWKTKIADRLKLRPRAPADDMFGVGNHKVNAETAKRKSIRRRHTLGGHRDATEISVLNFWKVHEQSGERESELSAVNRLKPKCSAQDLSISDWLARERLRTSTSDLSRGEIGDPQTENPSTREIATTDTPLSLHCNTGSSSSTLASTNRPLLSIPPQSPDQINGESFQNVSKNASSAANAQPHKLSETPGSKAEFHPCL
UniProt Q9UI08: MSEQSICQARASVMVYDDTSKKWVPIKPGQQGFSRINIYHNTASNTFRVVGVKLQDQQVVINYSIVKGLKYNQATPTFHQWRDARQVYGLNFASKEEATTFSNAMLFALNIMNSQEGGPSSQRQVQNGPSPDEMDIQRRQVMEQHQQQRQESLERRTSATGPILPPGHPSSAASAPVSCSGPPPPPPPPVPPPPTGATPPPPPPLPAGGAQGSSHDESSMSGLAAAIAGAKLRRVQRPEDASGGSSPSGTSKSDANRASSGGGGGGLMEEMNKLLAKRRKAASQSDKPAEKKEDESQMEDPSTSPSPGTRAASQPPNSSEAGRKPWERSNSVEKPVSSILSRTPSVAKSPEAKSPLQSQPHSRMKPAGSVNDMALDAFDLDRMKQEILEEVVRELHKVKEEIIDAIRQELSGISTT
UniProt P22223, residues 108-829: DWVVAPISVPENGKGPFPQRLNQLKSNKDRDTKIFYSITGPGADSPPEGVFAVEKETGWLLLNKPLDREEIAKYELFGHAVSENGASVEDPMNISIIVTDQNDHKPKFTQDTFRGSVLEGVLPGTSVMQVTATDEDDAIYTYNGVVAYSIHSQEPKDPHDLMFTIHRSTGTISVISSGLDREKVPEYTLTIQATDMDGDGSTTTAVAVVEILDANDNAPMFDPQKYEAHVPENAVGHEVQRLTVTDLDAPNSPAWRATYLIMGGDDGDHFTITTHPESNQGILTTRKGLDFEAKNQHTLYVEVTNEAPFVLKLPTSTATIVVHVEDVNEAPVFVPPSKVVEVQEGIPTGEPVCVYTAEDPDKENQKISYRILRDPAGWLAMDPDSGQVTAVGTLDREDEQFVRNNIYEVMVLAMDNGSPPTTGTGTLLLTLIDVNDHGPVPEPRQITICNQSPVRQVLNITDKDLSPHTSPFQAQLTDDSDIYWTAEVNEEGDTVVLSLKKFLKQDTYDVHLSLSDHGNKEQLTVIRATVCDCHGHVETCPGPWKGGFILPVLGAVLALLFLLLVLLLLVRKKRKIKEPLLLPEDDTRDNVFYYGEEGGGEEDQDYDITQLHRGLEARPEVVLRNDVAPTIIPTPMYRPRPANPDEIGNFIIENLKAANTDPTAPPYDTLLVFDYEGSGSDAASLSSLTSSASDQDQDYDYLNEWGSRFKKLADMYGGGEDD

For experiment [4], the target named is FLAG-HA-tagged profilin2 (PFN2) bait (human) (UniProt P35080).
For experiment [5], the target named is FLAG-HA-tagged PTPN6 (SHP1) bait (human) (UniProt P29350).
The target of experiment [6] is FLAG-HA-tagged STYXL1 bait (human) (UniProt Q9Y6J8).
Experiment [7] concerns the target FLAG-HA-tagged CAV1 bait (human) (UniProt Q03135).
The target in experiment [8] is FLAG-HA-tagged CORO1B bait (human) (UniProt Q9BR76).
The target of experiment [9] is FLAG-HA-tagged β-catenin (CTNNB1) bait (human) (UniProt P35222).

No constants are given. Whether binding was seen depends on the method and setting. Binding seen in cells or lysates may run through a third protein. Here binding means that the protein was enriched with, or labelled near, the bait; the list need not be complete. For part of these data: Where a sequence is shown, tags or fusion partners need not be part of it.

With “ARHGAP21, endogenous (from UniProt Q5T5U3 1-1958)”, the binding entry in [1] was “binds”.
Consider “CORO1B, endogenous (from UniProt Q9BR76 1-489)”, for which the binding result in [2] is “binds”.
With “E-cadherin (CDH1), endogenous (human (endogenous in MCF10A)) (receptor)”, in [3], the binding result is “binds”.
For “EVL, endogenous (from UniProt Q9UI08 1-416)”, in experiment [4], the binding result is recorded as “binds”.
Consider “MARK2 (PAR1), endogenous (from UniProt Q7KZI7 1-788) (enzyme)”, for which the binding result in [2] is on record as “binds”.
“P-cadherin (CDH3), endogenous (from UniProt P22223 108-829) (receptor)”: the binding entry in experiment [3] was “binds”.
Take “PRKCH (PKCη), endogenous (from UniProt P24723 1-683) (enzyme)”: the binding entry in experiment [5] and in [6] was “binds” in each case.
For the molecule “PTPN6 (SHP1), endogenous (from UniProt P29350 1-595) (enzyme)”, the binding result in experiment [2] is given as “binds”.
For “SPRED2, endogenous (from UniProt Q7Z698 1-418)”, in experiment [7], the binding result is “binds”.
In the case of “vinculin, endogenous (from UniProt P18206-2)”, in [8], the binding result was “binds”.
For “α-catenin (CTNNA1), endogenous (from UniProt P35221 1-906)”, the binding entry in [3] and in [9] was “binds” each time.
“β-catenin (CTNNB1), endogenous (from UniProt P35222 1-781)”: the binding result in [3] and in experiment [1] was “binds” in each case.

B1: PLEKHA6, endogenous (protein, UniProt Q9Y2H5 1-1048)
chain: MSNKTGGKRPATTNSDIPNHNMVSEVPPERPSVRATRTARKAVAFGKRSHSMKRNPNAPVTKAGWLFKQASSGVKQWNKRWFVLVDRCLFYYKDEKEESILGSIPLLSFRVAAVQPSDNISRKHTFKAEHAGVRTYFFSAESPEEQEAWIQAMGEAARVQIPPAQKSVPQAVRHSHEKPDSENVPPSKHHQQPPHNSLPKPEPEAKTRGEGDGRGCEKAERRPERPEVKKEPPVKANGLPAGPEPASEPGSPYPEGPRVPGGGEQPAQPNGWQYHSPSRPGSTAFPSQDGETGGHRRSFPPRTNPDKIAQRKSSMNQLQQWVNLRRGVPPPEDLRSPSRFYPVSRRVPEYYGPYSSQYPDDYQYYPPGVRPESICSMPAYDRISPPWALEDKRHAFRNGGGPAYQLREWKEPASYGRQDATVWIPSPSRQPVYYDELDAASSSLRRLSLQPRSHSVPRSPSQGSYSRARIYSPVRSPSARFERLPPRSEDIYADPAAYVMRRSISSPKVPPYPEVFRDSLHTYKLNEQDTDKLLGKLCEQNKVVREQDRLVQQLRAEKESLESALMGTHQELEMFGSQPAYPEKLRHKKDSLQNQLINIRVELSQATTALTNSTIEYEHLESEVSALHDDLWEQLNLDTQNEVLNRQIQKEIWRIQDVMEGLRKNNPSRGTDTAKHRGGLGPSATYSSNSPASPLSSASLTSPLSPFSLVSGSQGSPTKPGSNEPKANYEQSKKDPHQTLPLDTPRDISLVPTRQEVEAEKQAALNKVGVVPPRTKSPTDDEVTPSAVVRRNASGLTNGLSSQERPKSAVFPGEGKVKMSVEEQIDRMRRHQSGSMREKRRSLQLPASPAPDPSPRPAYKVVRRHRSIHEVDISNLEAALRAEEPGGHAYETPREEIARLRKMELEPQHYDVDINKELSTPDKVLIPERYIDLEPDTPLSPEELKEKQKKVERIKTLIAKSSMQNVVPIGEGDSVDVPQDSESQLQEQEKRIEISCALATEASRRGRMLSVQCATPSPPTSPASPAPPANPLSSESPRGADSSYTMRV
Take B1: the binding result in experiment [1] and in experiment [9] was “binds” each time.

B2: PPP1R1B, endogenous (protein, UniProt Q9UD71 1-204)
chain: MDPKDRKKIQFSVPAPPSQLDPRQVEMIRRRRPTPAMLFRLSEHSSPEEEASPHQRASGEGHHLKSKRPNPCAYTPPSLKAVQRIAESHLQSISNLNENQASEEEDELGELRELGYPREEDEEEEEDDEEEEEEEDSQAEVLKVIRQSAGQKTTCGQGLEGPWERPPPLDESERDGGSEDQVEDPALSEPGEEPQRPSPSEPGT
Regarding B2, the binding result in experiment [4] was “binds”.

B3: TRIP6, endogenous (protein, UniProt Q15654 1-476)
chain: MSGPTWLPPKQPEPARAPQGRAIPRGTPGPPPAHGAALQPHPRVNFCPLPSEQCYQAPGGPEDRGPAWVGSHGVLQHTQGLPADRGGLRPGSLDAEIDLLSSTLAELNGGRGHASRRPDRQAYEPPPPPAYRTGSLKPNPASPLPASPYGGPTPASYTTASTPAGPAFPVQVKVAQPVRGCGPPRRGASQASGPLPGPHFPLPGRGEVWGPGYRSQREPGPGAKEEAAGVSGPAGRGRGGEHGPQVPLSQPPEDELDRLTKKLVHDMNHPPSGEYFGQCGGCGEDVVGDGAGVVALDRVFHVGCFVCSTCRAQLRGQHFYAVERRAYCEGCYVATLEKCATCSQPILDRILRAMGKAYHPGCFTCVVCHRGLDGIPFTVDATSQIHCIEDFHRKFAPRCSVCGGAIMPEPGQEETVRIVALDRSFHIGCYKCEECGLLLSSEGECQGCYPLDGHILCKACSAWRIQELSATVTTDC
Regarding B3, the binding result in experiment [2] is “binds”.

B4: δ-catenin (CTNND1), endogenous (protein, UniProt O60716 1-968)
chain: MDDSEVESTASILASVKEQEAQFEKLTRALEEERRHVSAQLERVRVSPQDANPLMANGTLTRRHQNGRFVGDADLERQKFSDLKLNGPQDHSHLLYSTIPRMQEPGQIVETYTEEDPEGAMSVVSVETSDDGTTRRTETTVKKVVKTVTTRTVQPVAMGPDGLPVDASSVSNNYIQTLGRDFRKNGNGGPGPYVGQAGTATLPRNFHYPPDGYSRHYEDGYPGGSDNYGSLSRVTRIEERYRPSMEGYRAPSRQDVYGPQPQVRVGGSSVDLHRFHPEPYGLEDDQRSMGYDDLDYGMMSDYGTARRTGTPSDPRRRLRSYEDMIGEEVPSDQYYWAPLAQHERGSLASLDSLRKGGPPPPNWRQPELPEVIAMLGFRLDAVKSNAAAYLQHLCYRNDKVKTDVRKLKGIPVLVGLLDHPKKEVHLGACGALKNISFGRDQDNKIAIKNCDGVPALVRLLRKARDMDLTEVITGTLWNLSSHDSIKMEIVDHALHALTDEVIIPHSGWEREPNEDCKPRHIEWESVLTNTAGCLRNVSSERSEARRKLRECDGLVDALIFIVQAEIGQKDSDSKLVENCVCLLRNLSYQVHREIPQAERYQEAAPNVANNTGPHAASCFGAKKGKDEWFSRGKKPIEDPANDTVDFPKRTSPARGYELLFQPEVVRIYISLLKESKTPAILEASAGAIQNLCAGRWTYGRYIRSALRQEKALSAIADLLTNEHERVVKAASGALRNLAVDARNKELIGKHAIPNLVKNLPGGQQNSSWNFSEDTVISILNTINEVIAENLEAAKKLRETQGIEKLVLINKSGNRSEKEVRAAALVLQTIWGYKELRKPLEKEGWKKSDFQVNLNNASRSQSSHSYDDSTLPLIDRNQKSDKKPDREEIQMSNMGSNTKSLDNNYSTPNERGDHNRTLDRSGDLGDMEPLKGTTPLMQDEGQESLEEELDVLVLDDEGGQVSYPSMQKI
On to B4, for which the binding result in experiment [1] and in [9] was “binds” in each case.

The values are drawn from article PMC4891818.
